Source: publication PMC10816717
Results are given in words; binding and its absence hold for the method and conditions named. Binding seen in cells or lysates may run through a third protein. Here binding means that the protein was enriched with, or labelled near, the bait; the list need not be complete. No binding means not detected with the bait.

Chains of the proteins cited; added tags and fusions are not shown. Residues count along the entry.
UniProt Q14BI2, residues 19-872: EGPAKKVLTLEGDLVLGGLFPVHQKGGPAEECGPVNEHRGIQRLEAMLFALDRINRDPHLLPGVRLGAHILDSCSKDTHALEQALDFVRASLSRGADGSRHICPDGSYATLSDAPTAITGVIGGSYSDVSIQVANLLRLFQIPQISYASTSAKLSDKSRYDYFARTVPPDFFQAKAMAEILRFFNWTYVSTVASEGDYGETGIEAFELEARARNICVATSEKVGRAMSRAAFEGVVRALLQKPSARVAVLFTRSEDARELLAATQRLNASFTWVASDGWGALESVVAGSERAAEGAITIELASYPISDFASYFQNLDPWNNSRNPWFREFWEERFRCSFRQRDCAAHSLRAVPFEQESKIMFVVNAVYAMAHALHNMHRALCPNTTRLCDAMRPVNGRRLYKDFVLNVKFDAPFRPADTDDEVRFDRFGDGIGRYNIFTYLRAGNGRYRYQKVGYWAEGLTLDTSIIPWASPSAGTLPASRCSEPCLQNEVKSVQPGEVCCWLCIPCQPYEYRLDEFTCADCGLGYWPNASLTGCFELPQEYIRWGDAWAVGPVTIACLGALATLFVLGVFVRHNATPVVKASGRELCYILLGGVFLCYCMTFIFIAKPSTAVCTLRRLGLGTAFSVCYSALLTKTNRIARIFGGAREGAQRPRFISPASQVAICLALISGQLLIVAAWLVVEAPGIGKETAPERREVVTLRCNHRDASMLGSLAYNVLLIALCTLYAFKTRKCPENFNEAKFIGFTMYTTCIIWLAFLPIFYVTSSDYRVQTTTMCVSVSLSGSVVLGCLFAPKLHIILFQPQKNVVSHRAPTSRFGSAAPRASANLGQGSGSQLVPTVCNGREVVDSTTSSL
UniProt Q9QYS2, residues 23-879: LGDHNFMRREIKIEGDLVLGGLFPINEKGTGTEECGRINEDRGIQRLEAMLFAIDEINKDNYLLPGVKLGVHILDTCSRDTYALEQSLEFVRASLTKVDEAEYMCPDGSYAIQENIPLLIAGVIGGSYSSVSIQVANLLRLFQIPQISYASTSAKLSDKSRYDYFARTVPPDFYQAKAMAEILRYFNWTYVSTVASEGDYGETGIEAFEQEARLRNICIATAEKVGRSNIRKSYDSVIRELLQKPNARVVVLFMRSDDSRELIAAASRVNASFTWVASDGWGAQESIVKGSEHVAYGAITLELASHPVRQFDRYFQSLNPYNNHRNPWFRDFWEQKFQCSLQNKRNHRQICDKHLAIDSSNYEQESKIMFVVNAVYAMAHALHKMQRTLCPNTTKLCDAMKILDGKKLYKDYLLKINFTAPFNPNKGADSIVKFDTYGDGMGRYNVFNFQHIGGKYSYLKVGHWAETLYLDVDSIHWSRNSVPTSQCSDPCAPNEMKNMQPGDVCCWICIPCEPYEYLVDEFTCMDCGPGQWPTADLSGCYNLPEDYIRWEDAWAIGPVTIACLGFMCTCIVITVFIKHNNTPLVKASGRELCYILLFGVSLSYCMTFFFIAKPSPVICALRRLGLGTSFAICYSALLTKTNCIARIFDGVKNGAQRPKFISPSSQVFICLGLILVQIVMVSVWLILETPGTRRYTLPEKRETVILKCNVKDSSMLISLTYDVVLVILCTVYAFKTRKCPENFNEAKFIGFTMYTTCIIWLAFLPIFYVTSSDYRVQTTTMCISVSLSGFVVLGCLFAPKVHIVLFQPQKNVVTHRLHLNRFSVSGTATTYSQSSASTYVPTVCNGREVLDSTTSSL
UniProt P15209, residues 32-821: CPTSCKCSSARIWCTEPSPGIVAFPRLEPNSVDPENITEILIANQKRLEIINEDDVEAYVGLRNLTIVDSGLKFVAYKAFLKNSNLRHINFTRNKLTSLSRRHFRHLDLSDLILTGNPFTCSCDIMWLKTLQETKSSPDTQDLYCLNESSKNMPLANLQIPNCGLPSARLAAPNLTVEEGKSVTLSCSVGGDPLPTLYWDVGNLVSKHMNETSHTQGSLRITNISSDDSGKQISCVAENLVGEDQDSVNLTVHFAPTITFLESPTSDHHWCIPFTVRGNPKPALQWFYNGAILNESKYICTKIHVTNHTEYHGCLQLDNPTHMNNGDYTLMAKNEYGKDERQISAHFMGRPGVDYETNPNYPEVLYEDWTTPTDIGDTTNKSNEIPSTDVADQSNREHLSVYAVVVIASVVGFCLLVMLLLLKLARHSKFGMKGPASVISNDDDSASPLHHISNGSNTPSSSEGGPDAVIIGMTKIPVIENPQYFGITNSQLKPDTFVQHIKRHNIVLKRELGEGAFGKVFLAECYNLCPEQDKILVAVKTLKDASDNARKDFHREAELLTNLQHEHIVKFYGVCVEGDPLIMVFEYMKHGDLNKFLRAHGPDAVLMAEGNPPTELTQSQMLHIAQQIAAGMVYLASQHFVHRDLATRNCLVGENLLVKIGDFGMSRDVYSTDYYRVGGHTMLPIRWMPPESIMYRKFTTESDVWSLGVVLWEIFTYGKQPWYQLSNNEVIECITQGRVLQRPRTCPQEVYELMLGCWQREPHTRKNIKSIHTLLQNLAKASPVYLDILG
UniProt Q01097, residues 27-1482: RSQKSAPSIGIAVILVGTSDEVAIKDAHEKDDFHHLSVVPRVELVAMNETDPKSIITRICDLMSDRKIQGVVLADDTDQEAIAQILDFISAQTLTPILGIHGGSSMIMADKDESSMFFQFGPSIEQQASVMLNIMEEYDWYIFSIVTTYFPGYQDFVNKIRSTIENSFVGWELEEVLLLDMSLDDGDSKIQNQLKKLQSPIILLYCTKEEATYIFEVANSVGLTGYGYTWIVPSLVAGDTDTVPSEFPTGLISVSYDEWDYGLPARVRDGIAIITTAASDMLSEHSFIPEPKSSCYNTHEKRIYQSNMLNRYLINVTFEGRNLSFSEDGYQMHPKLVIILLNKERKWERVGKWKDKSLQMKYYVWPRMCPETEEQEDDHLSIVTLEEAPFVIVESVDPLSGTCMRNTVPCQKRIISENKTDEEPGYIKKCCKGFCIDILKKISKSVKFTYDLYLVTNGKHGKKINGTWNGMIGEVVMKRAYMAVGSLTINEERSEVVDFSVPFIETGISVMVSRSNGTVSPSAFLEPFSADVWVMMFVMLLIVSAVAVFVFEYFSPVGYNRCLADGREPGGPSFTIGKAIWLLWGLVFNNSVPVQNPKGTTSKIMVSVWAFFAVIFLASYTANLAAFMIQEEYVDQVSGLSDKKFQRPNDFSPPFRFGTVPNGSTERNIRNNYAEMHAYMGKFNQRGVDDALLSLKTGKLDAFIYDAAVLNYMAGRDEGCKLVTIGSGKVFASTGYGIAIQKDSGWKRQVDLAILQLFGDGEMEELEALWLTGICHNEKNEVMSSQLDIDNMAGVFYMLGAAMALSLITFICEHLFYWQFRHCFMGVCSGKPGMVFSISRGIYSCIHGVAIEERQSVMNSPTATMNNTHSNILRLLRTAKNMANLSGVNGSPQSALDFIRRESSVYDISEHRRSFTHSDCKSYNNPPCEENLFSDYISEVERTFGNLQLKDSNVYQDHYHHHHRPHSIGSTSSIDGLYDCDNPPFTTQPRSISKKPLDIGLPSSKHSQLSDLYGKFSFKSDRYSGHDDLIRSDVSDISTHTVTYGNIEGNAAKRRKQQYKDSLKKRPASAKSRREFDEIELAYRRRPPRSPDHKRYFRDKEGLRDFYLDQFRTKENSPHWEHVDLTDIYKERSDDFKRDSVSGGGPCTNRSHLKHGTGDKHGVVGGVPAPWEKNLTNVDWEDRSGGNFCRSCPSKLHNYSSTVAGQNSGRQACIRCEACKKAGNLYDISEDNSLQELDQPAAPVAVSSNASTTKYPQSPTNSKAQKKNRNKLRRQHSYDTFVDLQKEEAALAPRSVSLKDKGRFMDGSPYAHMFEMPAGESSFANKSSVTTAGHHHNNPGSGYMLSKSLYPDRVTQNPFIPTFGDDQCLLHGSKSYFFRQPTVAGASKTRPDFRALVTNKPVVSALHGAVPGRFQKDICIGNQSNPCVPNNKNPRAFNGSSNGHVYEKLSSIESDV
UniProt P47743, residues 34-908: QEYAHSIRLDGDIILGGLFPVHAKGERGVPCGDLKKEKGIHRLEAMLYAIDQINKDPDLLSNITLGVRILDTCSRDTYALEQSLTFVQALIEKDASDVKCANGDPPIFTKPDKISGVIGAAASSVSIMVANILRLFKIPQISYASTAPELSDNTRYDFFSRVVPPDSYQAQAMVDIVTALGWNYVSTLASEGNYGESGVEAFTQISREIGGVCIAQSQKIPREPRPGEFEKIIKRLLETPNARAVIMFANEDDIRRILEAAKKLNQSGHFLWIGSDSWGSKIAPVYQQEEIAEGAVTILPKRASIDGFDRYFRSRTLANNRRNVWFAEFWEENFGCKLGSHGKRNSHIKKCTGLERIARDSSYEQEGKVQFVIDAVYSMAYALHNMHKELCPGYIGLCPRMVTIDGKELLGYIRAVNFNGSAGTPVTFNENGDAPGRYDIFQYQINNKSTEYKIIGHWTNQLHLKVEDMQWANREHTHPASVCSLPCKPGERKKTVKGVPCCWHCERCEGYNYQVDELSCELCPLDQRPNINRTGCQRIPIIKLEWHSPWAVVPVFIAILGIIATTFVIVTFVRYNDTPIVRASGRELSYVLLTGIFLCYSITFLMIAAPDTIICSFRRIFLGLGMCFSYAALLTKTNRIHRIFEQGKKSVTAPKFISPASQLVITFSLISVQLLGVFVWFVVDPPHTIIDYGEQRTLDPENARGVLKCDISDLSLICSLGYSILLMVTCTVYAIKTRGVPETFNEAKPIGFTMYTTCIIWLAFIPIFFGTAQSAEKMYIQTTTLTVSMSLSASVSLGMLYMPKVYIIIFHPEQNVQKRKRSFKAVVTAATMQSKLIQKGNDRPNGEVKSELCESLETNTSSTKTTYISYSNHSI
UniProt Q68ED2, residues 35-915: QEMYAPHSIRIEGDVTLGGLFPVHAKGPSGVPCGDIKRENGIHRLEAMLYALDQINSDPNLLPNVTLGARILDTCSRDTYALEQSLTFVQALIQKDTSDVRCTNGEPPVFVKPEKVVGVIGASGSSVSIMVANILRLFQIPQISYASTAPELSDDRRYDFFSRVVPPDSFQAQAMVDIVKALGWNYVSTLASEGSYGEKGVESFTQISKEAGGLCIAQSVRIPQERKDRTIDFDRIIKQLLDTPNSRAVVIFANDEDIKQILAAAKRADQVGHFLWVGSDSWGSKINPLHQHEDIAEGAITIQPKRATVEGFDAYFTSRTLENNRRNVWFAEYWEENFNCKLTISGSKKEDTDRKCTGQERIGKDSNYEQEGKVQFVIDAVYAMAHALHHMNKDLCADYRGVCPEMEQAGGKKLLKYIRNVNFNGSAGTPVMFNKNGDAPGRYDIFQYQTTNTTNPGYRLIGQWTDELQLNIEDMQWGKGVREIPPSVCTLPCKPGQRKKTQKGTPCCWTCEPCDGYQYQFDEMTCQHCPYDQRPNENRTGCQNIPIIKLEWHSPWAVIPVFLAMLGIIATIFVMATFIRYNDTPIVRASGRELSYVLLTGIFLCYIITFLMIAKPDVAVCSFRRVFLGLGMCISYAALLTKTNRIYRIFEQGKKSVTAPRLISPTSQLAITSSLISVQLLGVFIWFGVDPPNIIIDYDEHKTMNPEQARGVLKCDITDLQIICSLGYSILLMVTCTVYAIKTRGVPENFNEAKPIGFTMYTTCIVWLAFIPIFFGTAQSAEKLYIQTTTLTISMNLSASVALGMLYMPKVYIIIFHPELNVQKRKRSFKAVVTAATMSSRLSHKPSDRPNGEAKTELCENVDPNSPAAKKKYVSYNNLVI

Target: Metabotropic glutamate receptor 2 (mGlu2), endogenous mouse (mouse (endogenous in prefrontal cortex, brain slices and cortical neurons)) (UniProt Q14BI2)
Test: affinity purification with mass spectrometry; mouse PFC lysate (2% lauryl maltose neopentyl glycol, 150 mM NaCl, 50 mM tris-HCl pH 7.4), 1 mg protein, anti-mGlu2 nanobody (5 μg) on Ni-NTA agarose beads; washes with 500 mM NaCl; control with a nonimmune nanobody; three biological replicates

| Substance | binding |
| --- | --- |
| mGlu3, endogenous mouse (from UniProt Q9QYS2 23-879) (receptor) | binds |
| BDNF/NT-3 growth factor receptor TrkB, endogenous mouse (from UniProt P15209 32-821) | binds |
| mGlu1, endogenous mouse (from UniProt P97772 21-1199) (receptor) | no binding |
| subunit 2B of glutamate ionotropic receptor of N-methyl-D-aspartate type, endogenous mouse (from UniProt Q01097 27-1482) | binds |
| mGlu8, endogenous mouse (from UniProt P47743 34-908) (receptor) | binds |
| mGlu7, endogenous mouse (from UniProt Q68ED2 35-915) (receptor) | binds |
| subunit 2A of glutamate ionotropic receptor of N-methyl-D-aspartate type, endogenous mouse (from UniProt P35436 23-1464) | binds |
